Paper PMC12240075
These are yes or no findings as the source states them, for the method shown. In cells and extracts the contact can be indirect. These calls come from enrichment with a bait or labelling near it, and not all partners need be listed.

Amino acid sequences for entries named in this document (tags omitted).
UniProt P11142: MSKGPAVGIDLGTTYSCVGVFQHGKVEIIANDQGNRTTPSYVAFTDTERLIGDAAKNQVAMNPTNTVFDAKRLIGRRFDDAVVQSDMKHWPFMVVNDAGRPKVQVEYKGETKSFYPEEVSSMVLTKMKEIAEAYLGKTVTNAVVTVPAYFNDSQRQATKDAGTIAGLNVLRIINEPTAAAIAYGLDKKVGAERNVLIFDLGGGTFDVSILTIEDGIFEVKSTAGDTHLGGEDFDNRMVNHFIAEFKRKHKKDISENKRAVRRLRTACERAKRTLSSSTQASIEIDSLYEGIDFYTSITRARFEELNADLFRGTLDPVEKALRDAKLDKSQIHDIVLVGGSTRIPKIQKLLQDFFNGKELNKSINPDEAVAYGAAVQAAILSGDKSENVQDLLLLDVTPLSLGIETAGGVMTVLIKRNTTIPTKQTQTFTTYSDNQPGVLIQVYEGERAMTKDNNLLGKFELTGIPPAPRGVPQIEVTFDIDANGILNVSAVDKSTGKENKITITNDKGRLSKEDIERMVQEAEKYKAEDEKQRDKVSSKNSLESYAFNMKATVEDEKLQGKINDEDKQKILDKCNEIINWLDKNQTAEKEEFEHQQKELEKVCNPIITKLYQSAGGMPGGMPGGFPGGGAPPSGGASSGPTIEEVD
UniProt P25490: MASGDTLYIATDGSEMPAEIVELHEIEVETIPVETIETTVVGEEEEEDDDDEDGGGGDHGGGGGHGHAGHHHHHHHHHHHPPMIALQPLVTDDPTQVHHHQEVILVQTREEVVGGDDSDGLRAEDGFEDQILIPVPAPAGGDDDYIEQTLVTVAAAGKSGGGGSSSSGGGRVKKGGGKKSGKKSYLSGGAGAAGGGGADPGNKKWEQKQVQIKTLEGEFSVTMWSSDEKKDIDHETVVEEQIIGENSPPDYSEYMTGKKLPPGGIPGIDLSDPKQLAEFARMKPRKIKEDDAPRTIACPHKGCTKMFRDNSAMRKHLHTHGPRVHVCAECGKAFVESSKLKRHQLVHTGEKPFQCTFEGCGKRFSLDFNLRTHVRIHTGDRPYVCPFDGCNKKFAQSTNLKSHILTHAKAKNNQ
UniProt Q9C0K0: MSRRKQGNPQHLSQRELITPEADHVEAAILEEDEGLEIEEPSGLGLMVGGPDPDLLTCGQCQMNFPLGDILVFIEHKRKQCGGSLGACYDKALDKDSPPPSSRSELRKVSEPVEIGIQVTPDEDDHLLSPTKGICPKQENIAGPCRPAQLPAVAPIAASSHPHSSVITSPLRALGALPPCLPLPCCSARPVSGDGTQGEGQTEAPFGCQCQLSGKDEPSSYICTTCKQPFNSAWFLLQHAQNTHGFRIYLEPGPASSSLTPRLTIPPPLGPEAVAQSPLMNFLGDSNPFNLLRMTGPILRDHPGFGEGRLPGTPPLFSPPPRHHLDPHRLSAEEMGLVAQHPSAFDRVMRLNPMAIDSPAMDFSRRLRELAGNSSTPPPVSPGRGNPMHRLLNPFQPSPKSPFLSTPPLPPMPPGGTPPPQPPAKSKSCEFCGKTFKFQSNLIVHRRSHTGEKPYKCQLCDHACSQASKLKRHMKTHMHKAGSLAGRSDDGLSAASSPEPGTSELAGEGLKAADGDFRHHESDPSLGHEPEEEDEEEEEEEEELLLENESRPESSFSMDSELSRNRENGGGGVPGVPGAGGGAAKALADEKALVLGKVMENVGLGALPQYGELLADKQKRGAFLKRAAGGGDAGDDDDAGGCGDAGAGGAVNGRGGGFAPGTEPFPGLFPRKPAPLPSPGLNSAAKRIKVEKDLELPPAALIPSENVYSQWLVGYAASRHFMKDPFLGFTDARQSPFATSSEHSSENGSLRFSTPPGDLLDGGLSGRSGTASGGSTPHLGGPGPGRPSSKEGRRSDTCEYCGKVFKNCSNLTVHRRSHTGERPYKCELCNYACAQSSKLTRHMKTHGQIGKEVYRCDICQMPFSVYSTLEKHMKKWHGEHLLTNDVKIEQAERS

Target: HA-HSC70 (UniProt P11142)
Test: affinity purification with mass spectrometry; label-free quantitative MS of the HA-HSC70-WT and HA-HSC70-5A interactomes

Row | binding | Molecule
1 | binds | transcription repressor Yin Yang 1 (from UniProt P25490 1-414)
2 | binds | transcriptional regulatory protein Bcl11b (from UniProt Q9C0K0 1-894)
3 | binds | nucleoporin Nup107 (protein, UniProt P57740 1-925) MDRSGFGEISSPVIREAEVTRTARKQSAQKRVLLQASQDENFGNTTPRNQVIPRTPSSFRQPFTPTSRSLLRQPDISCILGTGGKSPRLTQSSGFFGNLSMVTNLDDSNWAAAFSSQRSGLFTNTEPHSITEDVTISAVMLREDDPGEAASMSMFSDFLQSFLKHSSSTVFDLVEEYENICGSQVNILSKIVSRATPGLQKFSKTASMLWLLQQEMVTWRLLASLYRDRIQSALEEESVFAVTAVNASEKTVVEALFQRDSLVRQSQLVVDWLESIAKDEIGEFSDNIEFYAKSVYWENTLHTLKQRQLTSYVGSVRPLVTELDPDAPIRQKMPLDDLDREDEVRLLKYLFTLIRAGMTEEAQRLCKRCGQAWRAATLEGWKLYHDPNVNGGTELEPVEGNPYRRIWKISCWRMAEDELFNRYERAIYAALSGNLKQLLPVCDTWEDTVWAYFRVMVDSLVEQEIQTSVATLDETEELPREYLGANWTLEKVFEELQATDKKRVLEENQEHYHIVQKFLILGDIDGLMDEFSKWLSKSRNNLPGHLLRFMTHLILFFRTLGLQTKEEVSIEVLKTYIQLLIREKHTNLIAFYTCHLPQDLAVAQYALFLESVTEFEQRHHCLELAKEADLDVATITKTVVENIRKKDNGEFSHHDLAPALDTGTTEEDRLKIDVIDWLVFDPAQRAEALKQGNAIMRKFLASKKHEAAKEVFVKIPQDSIAEIYNQCEEQGMESPLPAEDDNAIREHLCIRAYLEAHETFNEWFKHMNSVPQKPALIPQPTFTEKVAHEHKEKKYEMDFGIWKGHLDALTADVKEKMYNVLLFVDGGWMVDVREDAKEDHERTHQMVLLRKLCLPMLCFLLHTILHSTGQYQECLQLADMVSSERHKLYLVFSKEELRKLLQKLRESSLMLLDQGLDPLGYEIQL
